Assay results as given in paper PMC7143940 (Molecules, 2020).
Some peptides are written in HELM: one residue between dots, names in brackets for other building blocks, links after the first $.

Test: general procedure: Fmoc solid-phase peptide synthesis; Fmoc-Cys(Trt)-NovaSynTGT Resin (0.2 meq/g), for peptide 1; HBTU / N,N-diisopropylethylamine
Details: whole synthesis, scale of the general procedure ca. 500 mg resin, 1 mmol (as printed, peptide 1)

Question: Which “final HPLC purity” value does the source give for PEPTIDE1{K.W.C.E.C}$$$$V2.0 here?
Answer: 99.38%
